PubChem BioAssay AID1224830, NIAID, 2016

Screen: 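Regulators of TLR4 signalling towards TNF-alpha in macrophage-like cells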 (primary screen)
Cell system: human THP-1 monocytic leukaemia cells, TNF dual-luciferase reporter clone, PMA-differentiated to macrophage-like cells
Knock-down reagent: siRNA pool against human genes, 50 nM
Time to read-out: LPS for 4 h, given about 3 days after siRNA transfection
Challenge: bacterial LPS (TLR4 ligand), 10 ng/ml
Detection: 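TNF firefly reporter luminescence divided by renilla, normalised to the plate median, then turned into a robust z-score for each replicate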
Direction: TNF reporter robust z-score: higher = stronger TNF reporter response to LPS
Rule for the call: 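Each well counts as active if its z-score is over 2.8 or under -1.5; controls are left without a call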
The deposit covers about 18,000 reagents; shown is a part drawn at random. About 2,900 of all reagents (16%) count as active. 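Calls are made per well; low scores hint the gene aids the LPS response, high scores that it dampens it.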 Reagents against one gene are numbered here. Repeated entries: four replicate wells of each siRNA pool.

target gene	reagent no.	TNF reporter robust z-score	outcome
CD27 (CD27 molecule)	1	-0.27	inactive
CD27 (CD27 molecule)	1	0.21	inactive
CD27 (CD27 molecule)	1	-0.5	inactive
CD27 (CD27 molecule)	1	0.62	inactive
DSPP (dentin sialophosphoprotein)	1	0.15	inactive
DSPP (dentin sialophosphoprotein)	1	-0.87	inactive
DSPP (dentin sialophosphoprotein)	1	-0.3	inactive
DSPP (dentin sialophosphoprotein)	1	0.02	inactive
RCC1 (regulator of chromosome condensation 1)	1	2.24	inactive
RCC1 (regulator of chromosome condensation 1)	1	1.58	inactive
RCC1 (regulator of chromosome condensation 1)	1	2.56	inactive
RCC1 (regulator of chromosome condensation 1)	1	-0.73	inactive
RCC1 (regulator of chromosome condensation 1)	2	-0.1	inactive
RCC1 (regulator of chromosome condensation 1)	2	-0.75	inactive
RCC1 (regulator of chromosome condensation 1)	2	-0.79	inactive
RCC1 (regulator of chromosome condensation 1)	2	0.32	inactive
MPZL1 (myelin protein zero like 1)	1	3.58	active
MPZL1 (myelin protein zero like 1)	1	4.39	active
MPZL1 (myelin protein zero like 1)	1	2.6	inactive
MPZL1 (myelin protein zero like 1)	1	3.18	active
KLK7 (kallikrein related peptidase 7)	1	-0.86	inactive
KLK7 (kallikrein related peptidase 7)	1	-0.04	inactive
KLK7 (kallikrein related peptidase 7)	1	-1.13	inactive
KLK7 (kallikrein related peptidase 7)	1	0.23	inactive
TMEM50A (transmembrane protein 50A)	1	0.94	inactive
TMEM50A (transmembrane protein 50A)	1	0.76	inactive
TMEM50A (transmembrane protein 50A)	1	0.08	inactive
TMEM50A (transmembrane protein 50A)	1	-0.11	inactive
VPS37B (VPS37B subunit of ESCRT-I)	1	0.04	inactive
VPS37B (VPS37B subunit of ESCRT-I)	1	1.33	inactive
VPS37B (VPS37B subunit of ESCRT-I)	1	0.26	inactive
VPS37B (VPS37B subunit of ESCRT-I)	1	0	inactive
GRK3 (G protein-coupled receptor kinase 3)	1	-0.49	inactive
GRK3 (G protein-coupled receptor kinase 3)	1	1.25	inactive
GRK3 (G protein-coupled receptor kinase 3)	1	0.56	inactive
GRK3 (G protein-coupled receptor kinase 3)	1	0.52	inactive
PCBP3 (poly(rC) binding protein 3)	1	-0.41	inactive
PCBP3 (poly(rC) binding protein 3)	1	-0.36	inactive
PCBP3 (poly(rC) binding protein 3)	1	0.05	inactive
PCBP3 (poly(rC) binding protein 3)	1	-1.33	inactive
PACRG (parkin coregulated)	1	1.95	inactive
PACRG (parkin coregulated)	1	4.71	active
PACRG (parkin coregulated)	1	-0.94	inactive
PACRG (parkin coregulated)	1	-0.01	inactive
DIRAS1 (DIRAS family GTPase 1)	1	-1.06	inactive
DIRAS1 (DIRAS family GTPase 1)	1	-1.03	inactive
DIRAS1 (DIRAS family GTPase 1)	1	-1	inactive
DIRAS1 (DIRAS family GTPase 1)	1	-0.85	inactive
GLT1D1 (glycosyltransferase 1 domain containing 1)	1	-0.15	inactive
GLT1D1 (glycosyltransferase 1 domain containing 1)	1	-0.36	inactive
GLT1D1 (glycosyltransferase 1 domain containing 1)	1	-0.42	inactive
GLT1D1 (glycosyltransferase 1 domain containing 1)	1	-0.29	inactive
CCDC88A (coiled-coil and HOOK domain protein 88A)	1	-1.22	inactive
CCDC88A (coiled-coil and HOOK domain protein 88A)	1	-1.04	inactive
CCDC88A (coiled-coil and HOOK domain protein 88A)	1	-1.24	inactive
CCDC88A (coiled-coil and HOOK domain protein 88A)	1	-0.98	inactive
ECI1 (enoyl-CoA delta isomerase 1)	1	-1.05	inactive
ECI1 (enoyl-CoA delta isomerase 1)	1	-0.23	inactive
ECI1 (enoyl-CoA delta isomerase 1)	1	-1.12	inactive
ECI1 (enoyl-CoA delta isomerase 1)	1	0.07	inactive
AKAP8 (A-kinase anchoring protein 8)	1	-0.13	inactive
AKAP8 (A-kinase anchoring protein 8)	1	0.68	inactive
AKAP8 (A-kinase anchoring protein 8)	1	-0.19	inactive
AKAP8 (A-kinase anchoring protein 8)	1	0.16	inactive
CLXN (calaxin)	1	0.7	inactive
CLXN (calaxin)	1	1.76	inactive
CLXN (calaxin)	1	0.39	inactive
CLXN (calaxin)	1	1.85	inactive
RASL10A (RAS like family 10 member A)	1	-0.36	inactive
RASL10A (RAS like family 10 member A)	1	0.88	inactive
RASL10A (RAS like family 10 member A)	1	-0.24	inactive
RASL10A (RAS like family 10 member A)	1	1.03	inactive
USP3 (ubiquitin specific peptidase 3)	1	0.52	inactive
USP3 (ubiquitin specific peptidase 3)	1	0.17	inactive
USP3 (ubiquitin specific peptidase 3)	1	-0.25	inactive
USP3 (ubiquitin specific peptidase 3)	1	3.73	active

Hits, among the entries above:
target gene	reagent no.	TNF reporter robust z-score	outcome
MPZL1 (myelin protein zero like 1)	1	3.58	active
MPZL1 (myelin protein zero like 1)	1	4.39	active
MPZL1 (myelin protein zero like 1)	1	3.18	active
PACRG (parkin coregulated)	1	4.71	active
USP3 (ubiquitin specific peptidase 3)	1	3.73	active
